Measured values from the supplement of paper PMC12889115.
This is one part of the list. These are raw signals, not scaled to a control.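 In the initial screen, polymyxin B was used at a concentration that permeabilizes Salmonella's outer membrane but not its inner membrane. Maximum growth was set by DMSO wells with or without polymyxin B. Since plates varied, data were ranked per plate, and compounds giving the lowest OD600 advanced as hits.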

Tested on: Salmonella enterica serovar Typhimurium SL1344
Assay: bacterial growth OD600 after 18 h with compound and polymyxin B; higher = more bacterial growth (less inhibition)
Conditions: 50 µM, Mueller-Hinton broth

Compound	bacterial growth OD600 (polymyxin B 1 µg/mL)	bacterial growth OD600 (polymyxin B 0.75 µg/mL)
Cc1ccc(CN2CCN(Cc3c(F)cccc3F)CC2CCO)cc1 (stereo unspecified)	0.769	
CCCCn1c(CN2CCCC(C(C)=O)C2)cnc1S(=O)(=O)CC1CCC1 (stereo unspecified)	0.82	
CC(C)CC(=O)N1CCCC(N2CCN(Cc3ccc4c(c3)OCO4)CC2)C1 (stereo unspecified)	0.957	
CC(C)CCN(C)c1ccc(C(=O)N2CCC(Oc3cccnc3)CC2)cn1		0.244
CC(=O)c1cc(CN2CCC(CO)(CCCc3ccccc3)CC2)cs1	0.952	
Cn1ccnc1C1CCCCN1C(=O)CC1(c2ccccc2)CC(=O)N(Cc2cccs2)C1=O (stereo unspecified)		0.852
CCn1c(-c2ccccc2F)nc2cc(C(=O)N(C)Cc3ccco3)cc(NC(C)=O)c21		0.846
CCOC(=O)C1(Cc2ccc(OC)cc2)CCN(S(=O)(=O)c2sccc2C)CC1	0.823	
Cc1noc(C)c1CC(=O)NCc1nc(NCCCc2ccccc2)c2ccccc2n1		0.007
CCOC(=O)C1(CCc2ccccc2)CCCN(Cc2nccn2CC)C1 (stereo unspecified)	0.001	
CC1CN(C(=O)c2csc3nc(-c4ccc(F)cc4)cn23)CCN1C (stereo unspecified)		0.786
O=C(c1ccc(-c2ccccc2)c(F)c1)C1CCCN(C(=O)c2ccco2)C1 (stereo unspecified)	0.105	
Cc1ccccc1N1CCN(C2CCCN(C(=O)CC3CCCC3)C2)CC1 (stereo unspecified)	0.786	
CC(C)Cc1noc(-c2ccc(N(C)CC3COCCO3)nc2)n1 (stereo unspecified)	0.944	
COc1ccc(CCC(=O)N2CCC(CO)(Cc3ccc(Cl)cc3)CC2)cc1	0.017	
O=C(Nc1cc(CNC2C3CC4CC(C3)CC2C4)cc(C(=O)N2CCCC2)c1)c1ccccn1 (stereo unspecified)		0.736

Compound	bacterial growth OD600 (polymyxin B 1 µg/mL)	bacterial growth OD600 (polymyxin B 0.75 µg/mL)
Cc1ccoc1C(=O)N1CCC2(CCCN(Cc3ccc(F)c(F)c3)C2)C1 (stereo unspecified)	0.703	
COCC1CCCCN1Cc1nc(-c2cc3c(cc2Cl)OCO3)oc1C (stereo unspecified)	1.01	
COc1ccc(CC2(CCC(=O)NCCC3COc4ccccc4O3)CCC(=O)N2)c(F)c1 (stereo unspecified)		0.824
COC(=O)c1ccc(CN2CCN(CC=C(C)C)C(CCO)C2)cc1 (stereo unspecified)	0.832	
C=C(C)CNC(=O)CCc1nnc(Cc2cc(OC)ccc2OC)o1	0.838	
COCCN1CCCC2(CCN(C(=O)c3cc(F)c(F)cc3F)C2)C1=O (stereo unspecified)	0.941	
Fc1cccc(NC2CCCN(Cc3ccc4nsnc4c3)C2)c1 (stereo unspecified)	0.629	
CC(=O)Nc1ccc(CN2CCC(C(Cc3ccccc3Cl)N(C)C(=O)c3ccco3)CC2)cc1 (stereo unspecified)		0.76
Cc1cccn2c(CN3CCN(C)C[C@@H]3C(C)C)c(C(=O)N(C)CCc3ccccc3)nc12	0.992	
COc1ccc(-n2ncc3c2CC(C)(C)CC3NC(=O)c2cnsn2)cc1 (stereo unspecified)	0.787	
COc1ccc(OC)c(C(=O)N2CCC(n3nccc3NC(=O)CC(C)C)CC2)c1	0.887	
COCCN1CCCC2(CCN(C(=O)Nc3ccc(C)cc3)C2)C1=O (stereo unspecified)		0.828
C=CCC(=O)N1CCC(n2nccc2NC(=O)c2ccc3c(c2)OCO3)CC1	0.863	
Cc1ccc(Oc2ncccc2CNC(=O)c2ccccn2)c(F)c1F	0.815	
O=C(NCCc1nc(-c2ccccc2)no1)C1CCC(=O)N(C2CC2)C1 (stereo unspecified)	0.839	

For convenience, some entries already given:
Compound	bacterial growth OD600 (polymyxin B 1 µg/mL)	bacterial growth OD600 (polymyxin B 0.75 µg/mL)
C=C(C)CNC(=O)CCc1nnc(Cc2cc(OC)ccc2OC)o1	0.838	
COCCN1CCCC2(CCN(C(=O)c3cc(F)c(F)cc3F)C2)C1=O (stereo unspecified)	0.941	
